Measurements as given in PubChem BioAssay AID2685 (National Center for Advancing Translational Sciences (NCATS), 2010).
The list shows a part of the results. Further columns of the screen follow, without active or inactive calls. Compounds called inactive in the main read-out are mostly missing here. Potencies come from curve fits of mixed quality, noted in brackets.

Assay: qHTS Assay for Lipid Storage Modulators in Drosophila S3 Cells;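 as to cell number change: cells counted by Cell Tracker Red CMTPX staining in the red channel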
Settings: BODIPY lipid droplet fluorescence, 18-24 h; for cell number change: measured here: cell count max response, cells fed with added oleic acid
Summary of the method: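 Laser-scanning cytometry quantifies lipid droplet accumulation (500–530 nm total intensity; droplet/cell object ratio) in oleic acid-fed (400 uM added) Drosophila S3 cells treated with a concentration series. 20 uM Triacsin C defined 100% inhibition.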

[1] = measured here: cell number channel AC50, cells fed with added oleic acid
[2] = measured here: lipid fluorescence (Fed channel) AC50, cells fed with added oleic acid

Structure (SMILES) | cell number change [%] | AC50 [1] | AC50 [2]
CCOc1ccc(NS(=O)(=O)c2ccc3[nH]c(=O)[nH]c3c2)cc1 | -30.2 | 0.164 µM [falling, full curve] | –
COc1ccc(C(=O)N2CCN(CCc3ccccn3)CC2)cc1 | – | – | 6.51 µM [rising, single point]
Cc1ccccc1OCc1nnc(SCc2nc3ccccc3c(=O)[nH]2)n1C | -30 | – | –
COc1ccc(CNC(=O)[C@H](C)NC(=O)C2CCN(C(=O)[C@@H](N)Cc3ccccc3)CC2)cc1 | -17.5 | – | 0.058 µM [falling, full curve, poor fit]
CC(=O)Nc1cccc(C(=O)OCC(=O)N(c2ccccc2)C2CCS(=O)(=O)C2)c1 (stereo not given) | – | 6.51 µM [falling, single point] | 4.61 µM [falling, partial curve]
COC(=O)c1ccc(Cn2c(C)cc(C)[n+]2C)o1 | 13 | – | –
Cc1ccc(-n2c(SCC(=O)Nc3ccc4c5c(cccc35)CC4)nc(O)cc2=O)cc1 | 15.8 | – | 1.03 µM [rising, partial curve, poor fit]
COCCn1c(=O)c2cc3c(=O)n(CCOC)c(=O)c3cc2c1=O | -22.2 | 2.06 µM [falling, partial curve, poor fit] | 29.1 µM [falling, single point]
COc1ccc(S(=O)(=O)N2CCN(CC(O)COc3ccc(CC#N)cc3)CC2)cc1OC (stereo not given) | 34.2 | 29.1 µM [rising, single point] | 11.6 µM [rising, single point]
COc1ccc(C2=NOC(COc3ccc([N+](=O)[O-])cc3)C2)cc1 (stereo not given) | 24.6 | – | 0.651 µM [rising, full curve, poor fit]
Cc1ccc(NC(=O)c2ccc3c(c2)[nH]c(=O)n3C(C)C)cc1 | -37.8 | – | –
O=C(NC1CCN(C(=O)c2ccccc2Br)CC1)c1ccccc1 | -50.1 | 23.1 µM [falling, single point] | 23.1 µM [falling, partial curve]
O=C(Cn1cnc2c(nnn2Cc2ccc(F)cc2)c1=O)Nc1cccc(F)c1 | 23.2 | – | 4.61 µM [rising, single point]
Cn1ccc(=Nc2ccc(NC(=O)c3ccc(N=c4ccn(C)c5ccc([N+](=O)[O-])cc45)cc3)cc2)cc1 | 86.5 | 2.91 µM [rising, full curve] | 4.11 µM [rising, full curve]
CC(C)(C)OC(=O)COc1cc(F)ccc1[N+](=O)[O-] | 17.8 | – | 0.92 µM [rising, partial curve]

Full records from above:
CC(=O)Nc1cccc(C(=O)OCC(=O)N(c2ccccc2)C2CCS(=O)(=O)C2)c1 (stereo not given) as listed: AC50 [1]: 6.51 µM [falling, single point]; AC50 [2]: 4.61 µM [falling, partial curve]
Cc1ccc(NC(=O)c2ccc3c(c2)[nH]c(=O)n3C(C)C)cc1 as listed: cell number change [%]: -37.8
